Here are results for 27 molecules from patent US20060257938A1, “Method of screening for drugs that block ligand binding to a lipid binding protein” (priority 2005, published 2006).

Changes are numbered by the printed parent chain. In names and notes the source's numbering stands.

The chains are these.
B1: Y117S, L72A: FABP probe clone, substitutions Y117S, L72A vs SEQ ID NO: 2 (protein, listed as Rattus norvegicus)
chain: AFDGTWKVDRNENYEKFMEKMGINVVKRKLGAHDNLKLTITQEGNKFTVKESSNFRNIDVVFELGVDFAYSAADGTELTGTWTMEGNKLVGKFKRVDNGKELIAVREISGNELIQTSTYEGVEAKRIFKKE
modifications: PEPTIDE (1)...(131) wild-type rat intestinal fatty acid binding protein
B2: A73F, L72A: FABP probe clone, substitutions A73F, L72A vs SEQ ID NO: 2 (protein, listed as Rattus norvegicus)
chain: B1 chain with A73F, S117Y
modifications: PEPTIDE (1)...(131) wild-type rat intestinal fatty acid binding protein
B3: L72A: FABP probe clone, substitution L72A vs SEQ ID NO: 2 (protein of ADIFAB2) (protein, listed as Rattus norvegicus)
chain: B1 chain with S117Y
modifications: PEPTIDE (1)...(131) wild-type rat intestinal fatty acid binding protein
B4: L72M: FABP probe clone, substitution L72M vs SEQ ID NO: 2 (protein, listed as Rattus norvegicus)
chain: B1 chain with A72M, S117Y
modifications: PEPTIDE (1)...(131) wild-type rat intestinal fatty acid binding protein
B5: A73I, L72A: FABP probe clone, substitutions A73I, L72A vs SEQ ID NO: 2 (protein, listed as Rattus norvegicus)
chain: B1 chain with A73I, S117Y
modifications: PEPTIDE (1)...(131) wild-type rat intestinal fatty acid binding protein
B6: Y117A, L72A: FABP probe clone, substitutions Y117A, L72A vs SEQ ID NO: 2 (protein, listed as Rattus norvegicus)
chain: B1 chain with S117A
modifications: PEPTIDE (1)...(131) wild-type rat intestinal fatty acid binding protein
B7: R106W, L72A: FABP probe clone, substitutions R106W, L72A vs SEQ ID NO: 2 (protein, listed as Rattus norvegicus)
chain: B1 chain with R106W, S117Y
modifications: PEPTIDE (1)...(131) wild-type rat intestinal fatty acid binding protein
B8: D74F, L72A: FABP probe clone, substitutions D74F, L72A vs SEQ ID NO: 2 (protein, listed as Rattus norvegicus)
chain: B1 chain with D74F, S117Y
modifications: PEPTIDE (1)...(131) wild-type rat intestinal fatty acid binding protein
B9: L72G: FABP probe clone, substitution L72G vs SEQ ID NO: 2 (protein, listed as Rattus norvegicus)
chain: B1 chain with A72G, S117Y
modifications: PEPTIDE (1)...(131) wild-type rat intestinal fatty acid binding protein
B10: L78F, L72A: FABP probe clone, substitutions L78F, L72A vs SEQ ID NO: 2 (protein, listed as Rattus norvegicus)
chain: B1 chain with L78F, S117Y
modifications: PEPTIDE (1)...(131) wild-type rat intestinal fatty acid binding protein
B11: W82F, L72A: FABP probe clone, substitutions W82F, L72A vs SEQ ID NO: 2 (protein, listed as Rattus norvegicus)
chain: B1 chain with W82F, S117Y
modifications: PEPTIDE (1)...(131) wild-type rat intestinal fatty acid binding protein
B12: L1P3D6: FABP probe, substitution Y14L vs SEQ ID NO: 2 (protein, listed as Rattus norvegicus)
chain: B1 chain with Y14L, A72L, S117Y
modifications: PEPTIDE (1)...(131) wild-type rat intestinal fatty acid binding protein
B13: L1P12F12: FABP probe, substitutions Y14L L72G Y117V vs SEQ ID NO: 2 (protein, listed as Rattus norvegicus)
chain: B1 chain with Y14L, A72G, S117V
modifications: PEPTIDE (1)...(131) wild-type rat intestinal fatty acid binding protein
B14: L1P2F7: FABP probe, substitutions Y14I L72G Y117V vs SEQ ID NO: 2 (protein, listed as Rattus norvegicus)
chain: B1 chain with Y14I, A72G, S117V
modifications: PEPTIDE (1)...(131) wild-type rat intestinal fatty acid binding protein
B15: L1P9G10: FABP probe, substitutions L38I L72G vs SEQ ID NO: 2 (protein, listed as Rattus norvegicus)
chain: B1 chain with L38I, A72G, S117Y
modifications: PEPTIDE (1)...(131) wild-type rat intestinal fatty acid binding protein
B16: L1P7B11: FABP probe, substitutions Y14I L38I L72V vs SEQ ID NO: 2 (protein, listed as Rattus norvegicus)
chain: B1 chain with Y14I, L38I, A72V, S117Y
modifications: PEPTIDE (1)...(131) wild-type rat intestinal fatty acid binding protein
B17: L1P12G10: FABP probe, substitution Y14I vs SEQ ID NO: 2 (protein, listed as Rattus norvegicus)
chain: B1 chain with Y14I, A72L, S117Y
modifications: PEPTIDE (1)...(131) wild-type rat intestinal fatty acid binding protein
B18: L1P11F12: FABP probe, substitutions Y14L L38I vs SEQ ID NO: 2 (protein, listed as Rattus norvegicus)
chain: B1 chain with Y14L, L38I, A72L, S117Y
modifications: PEPTIDE (1)...(131) wild-type rat intestinal fatty acid binding protein
B19: L1P14A9: FABP probe, substitutions Y14L L72G Y117I vs SEQ ID NO: 2 (protein, listed as Rattus norvegicus)
chain: B1 chain with Y14L, A72G, S117I
modifications: PEPTIDE (1)...(131) wild-type rat intestinal fatty acid binding protein
B20: L1P17A8: FABP probe, substitutions L38M L72G Y117F vs SEQ ID NO: 2 (protein, listed as Rattus norvegicus)
chain: B1 chain with L38M, A72G, S117F
modifications: PEPTIDE (1)...(131) wild-type rat intestinal fatty acid binding protein
B21: L1P1F7: FABP probe, substitutions Y14L L38M Y117F vs SEQ ID NO: 2 (protein, listed as Rattus norvegicus)
chain: B1 chain with Y14L, L38M, A72L, S117F
modifications: PEPTIDE (1)...(131) wild-type rat intestinal fatty acid binding protein
B22: L1P5A10: FABP probe, substitution Y117A vs SEQ ID NO: 2 (protein, listed as Rattus norvegicus)
chain: B1 chain with A72L, S117A
modifications: PEPTIDE (1)...(131) wild-type rat intestinal fatty acid binding protein
B23: L1P12E11: FABP probe, substitutions Y14L L72W vs SEQ ID NO: 2 (protein, listed as Rattus norvegicus)
chain: B1 chain with Y14L, A72W, S117Y
modifications: PEPTIDE (1)...(131) wild-type rat intestinal fatty acid binding protein
B24: L1P16G10: FABP probe, substitutions Y14W L72M Y117A vs SEQ ID NO: 2 (protein, listed as Rattus norvegicus)
chain: B1 chain with Y14W, A72M, S117A
modifications: PEPTIDE (1)...(131) wild-type rat intestinal fatty acid binding protein
B25: 18L 73L 72A (protein, listed as Rattus norvegicus)
chain: B1 chain with M18L, A73L, S117Y
modifications: PEPTIDE (1)...(131) wild-type rat intestinal fatty acid binding protein
B26: 73I 72A (protein, listed as Rattus norvegicus)
chain: B1 chain with A73I, S117Y
modifications: PEPTIDE (1)...(131) wild-type rat intestinal fatty acid binding protein
B27: 21W 78A 102V 72A (protein, listed as Rattus norvegicus)
chain: B1 chain with M21W, L78A, L102V, S117Y
modifications: PEPTIDE (1)...(131) wild-type rat intestinal fatty acid binding protein

The first data set in a line: Baseline fluorescence ratio Ro of probe in absence of analyte. Conditions: Table 3; baseline ratio, no analyte.
In the case of B1, the Ro worked out at 0.36.
Turning to B2, the Ro turned out to be 0.33.
Still for that read-out and setting: with B3 the figure was 0.17; with B4, 0.38; with B5, 0.27.
Still for that read-out and setting: the value for B6 was 0.28.
For B7, the Ro is recorded as 0.24.
Still for that read-out and setting: the value for B8 was 0.25; that for B9 was 0.28; that for B10 was 0.35.
Still for that read-out and setting: with B11 the figure was 0.27.

The same data set, now with this note: Table 4; baseline ratio, no analyte.
Turning to B12, the Ro is given as 0.24.
Same read-out and setting: with B13 the figure was 0.28; with B14, 0.32.
On to B15, for which the Ro amounted to 0.29.
Still for that read-out and setting: the value for B16 was 0.21; that for B17 was 0.35.
Still for that read-out and setting: the value for B18 was 0.27; that for B19 was 0.25; that for B20 was 0.24.
Same read-out and setting: the value for B21 was 0.22.
For the molecule B22, the Ro turned out to be 0.28.
On the same count and under the same terms, with B23 the figure was 0.59; with B24, 0.34.

The same data set, now with this note: baseline fluorescence ratio of probe.
Regarding B25, the Ro worked out at 0.283.
The same measure, in the same setting: with B26 the figure was 0.276.
On the same count and under the same terms, the value for B27 was 0.388.
